Measurements reported in PubChem BioAssay AID1508597 (Cure First, 2020).
Shown is an unselected part of about 2,100 reagents tested. 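Calls flag viability under 80% in either arm, not effects specific to rucaparib; the reference for percent is not stated.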 Entries without a mark were called inactive. Not given: the 100% reference.

- Purpose: 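Genes whose silencing sensitises or protects ovarian cancer cells against rucaparib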 (primary screen)
- Cells: human ovarian carcinoma lines grown from tumours: OCI-P5x (papillary serous) and OCI-C5x (clear cell)
- Reagent: siRNA pool against human genes, 1.25 pmol siRNA per well
- Time to read-out: 72 h or 96 h, depending on the cell culture
- Challenge: rucaparib 20 µM (about IC30) or vehicle, present until read-out
- Read-out: 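ATP luminescence measured at 72 or 96 h according to the culture, then normalised and expressed as percent viability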
- Scale: viability, normalised: higher = more viable cells remaining
- Rule for the call: 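Active when normalised viability falls below 80 percent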
- Meaning of the calls: active = viability under 80%; inactive = viability 80% or more

target gene	rucaparib or vehicle	cell line	technical replicate	viability, normalised (%)
FXR2	Rucaparib	OCI-C5x (clear cell)	1	64.2 (active)
FXR2	Rucaparib	OCI-C5x (clear cell)	2	59.3 (active)
FXR2	Rucaparib	OCI-C5x (clear cell)	3	58.4 (active)
FXR2	Rucaparib	OCI-P5x (serous)	1	56.3 (active)
FXR2	Rucaparib	OCI-P5x (serous)	2	63.7 (active)
FXR2	Rucaparib	OCI-P5x (serous)	3	68.3 (active)
FXR2	Vehicle	OCI-C5x (clear cell)	1	61.3 (active)
FXR2	Vehicle	OCI-C5x (clear cell)	2	63.1 (active)
FXR2	Vehicle	OCI-C5x (clear cell)	3	54 (active)
FXR2	Vehicle	OCI-P5x (serous)	1	74 (active)
FXR2	Vehicle	OCI-P5x (serous)	2	81.4
FXR2	Vehicle	OCI-P5x (serous)	3	77.9 (active)
ARSA	Rucaparib	OCI-C5x (clear cell)	1	57.4 (active)
ARSA	Rucaparib	OCI-C5x (clear cell)	2	41.9 (active)
ARSA	Rucaparib	OCI-C5x (clear cell)	3	45 (active)
ARSA	Rucaparib	OCI-P5x (serous)	1	64.3 (active)
ARSA	Rucaparib	OCI-P5x (serous)	2	98.6
ARSA	Rucaparib	OCI-P5x (serous)	3	84.2
ARSA	Vehicle	OCI-C5x (clear cell)	1	40 (active)
ARSA	Vehicle	OCI-C5x (clear cell)	2	43.2 (active)
ARSA	Vehicle	OCI-C5x (clear cell)	3	46.5 (active)
ARSA	Vehicle	OCI-P5x (serous)	1	93.8
ARSA	Vehicle	OCI-P5x (serous)	2	93.1
ARSA	Vehicle	OCI-P5x (serous)	3	86
NLGN1	Rucaparib	OCI-C5x (clear cell)	1	28.9 (active)
NLGN1	Rucaparib	OCI-C5x (clear cell)	2	24.8 (active)
NLGN1	Rucaparib	OCI-C5x (clear cell)	3	31.3 (active)
NLGN1	Rucaparib	OCI-P5x (serous)	1	33.4 (active)
NLGN1	Rucaparib	OCI-P5x (serous)	2	27.1 (active)
NLGN1	Rucaparib	OCI-P5x (serous)	3	25.2 (active)
NLGN1	Vehicle	OCI-C5x (clear cell)	1	24.9 (active)
NLGN1	Vehicle	OCI-C5x (clear cell)	2	35.5 (active)
NLGN1	Vehicle	OCI-C5x (clear cell)	3	23.1 (active)
NLGN1	Vehicle	OCI-P5x (serous)	1	33.7 (active)
NLGN1	Vehicle	OCI-P5x (serous)	2	34 (active)
NLGN1	Vehicle	OCI-P5x (serous)	3	42.3 (active)
NSD1	Rucaparib	OCI-C5x (clear cell)	1	47.1 (active)
NSD1	Rucaparib	OCI-C5x (clear cell)	2	58.9 (active)
NSD1	Rucaparib	OCI-C5x (clear cell)	3	55.1 (active)
NSD1	Rucaparib	OCI-P5x (serous)	1	55.8 (active)
NSD1	Rucaparib	OCI-P5x (serous)	2	52.8 (active)
NSD1	Rucaparib	OCI-P5x (serous)	3	51.8 (active)
NSD1	Vehicle	OCI-C5x (clear cell)	1	50.3 (active)
NSD1	Vehicle	OCI-C5x (clear cell)	2	38.4 (active)
NSD1	Vehicle	OCI-C5x (clear cell)	3	42.4 (active)
NSD1	Vehicle	OCI-P5x (serous)	1	60.3 (active)
NSD1	Vehicle	OCI-P5x (serous)	2	77 (active)
NSD1	Vehicle	OCI-P5x (serous)	3	83.2
NPR1	Rucaparib	OCI-C5x (clear cell)	1	52.3 (active)
NPR1	Rucaparib	OCI-C5x (clear cell)	2	66.6 (active)
NPR1	Rucaparib	OCI-C5x (clear cell)	3	68.1 (active)
NPR1	Rucaparib	OCI-P5x (serous)	1	103
NPR1	Rucaparib	OCI-P5x (serous)	2	91.8
NPR1	Rucaparib	OCI-P5x (serous)	3	88.3
NPR1	Vehicle	OCI-C5x (clear cell)	1	80.3
NPR1	Vehicle	OCI-C5x (clear cell)	2	47.4 (active)
NPR1	Vehicle	OCI-C5x (clear cell)	3	71.3 (active)
NPR1	Vehicle	OCI-P5x (serous)	1	95.1
NPR1	Vehicle	OCI-P5x (serous)	2	89.5
NPR1	Vehicle	OCI-P5x (serous)	3	92.6

Entries above whose gene name begins with F or f:
target gene	rucaparib or vehicle	cell line	technical replicate	viability, normalised (%)
FXR2	Rucaparib	OCI-C5x (clear cell)	1	64.2 (active)
FXR2	Rucaparib	OCI-C5x (clear cell)	2	59.3 (active)
FXR2	Rucaparib	OCI-C5x (clear cell)	3	58.4 (active)
FXR2	Rucaparib	OCI-P5x (serous)	1	56.3 (active)
FXR2	Rucaparib	OCI-P5x (serous)	2	63.7 (active)
FXR2	Rucaparib	OCI-P5x (serous)	3	68.3 (active)
FXR2	Vehicle	OCI-C5x (clear cell)	1	61.3 (active)
FXR2	Vehicle	OCI-C5x (clear cell)	2	63.1 (active)
FXR2	Vehicle	OCI-C5x (clear cell)	3	54 (active)
FXR2	Vehicle	OCI-P5x (serous)	1	74 (active)
FXR2	Vehicle	OCI-P5x (serous)	2	81.4
FXR2	Vehicle	OCI-P5x (serous)	3	77.9 (active)
